Test results as given in patent US20250082717A1, “COMPOSITIONS FOR TREATING KIDNEY DISEASE” (RHYTHM PHARMACEUTICALS, INC., priority 2018, published 2025).

Test system: BBS10^−/− mice
Experiment: Setmelanotide daily for one week, body weight and plasma and urine biomarker levels
Format: in vivo
Conditions: 1.25 mg/kg daily for one week, compared to vehicle or pair-fed mice
Procedure: In order to assess the effect of setmelanotide on body weight and the levels of certain biomarkers, BBS10^−/− mice were administered setmelanotide (1.25 mg/kg) daily for one week. […] However, setmelanotide treatment did result in an increase in urine calcium levels as well as an increase in urine creatine levels (FIG. 4).
Additional studies in these mice entailed measurement of blood plasma levels of the biomarkers leptin and adiponectin after treatment with setmelanotide (1.25 mg/kg). […] Further, the leptin: adiponectin ration was decreased in setmelanotide treated mice.

CC(=O)N[C@@H](CCCNC(=N)N)C(=O)N[C@H]1CSSC[C@@H](C(N)=O)NC(=O)[C@H](Cc2c[nH]c3ccccc23)NC(=O)[C@H](CCCNC(=N)N)NC(=O)[C@@H](Cc2ccccc2)NC(=O)[C@H](Cc2cnc[nH]2)NC(=O)[C@@H](C)NC1=O [setmelanotide, Ac-Arg-c (Cys-D-Ala-His-D-Phe-Arg-Trp-Cys)-NH2]
did not alter: blood plasma level of calcium | blood plasma level of chloride | blood plasma level of creatine | blood plasma level of glucose | blood plasma level of phosphorus | blood plasma level of potassium | blood plasma level of sodium
